Reference: US12099068B2, “Biomarkers for graft-versus-host disease” (Incyte Corporation, priority 2018, dated 2024)

B1: SIGLEC7 (protein, UniProt Q9Y286 19-467, looked up)
Sialic acid-binding Ig-like …: QKSNRKDYSLTMQSSVTVQEGMCVHVRCSFSYPVDSQTDSDPVHGYWFRAGNDISWKAPVATNNPAWAVQEETRDRFHLLGDPQTKNCTLSIRDARMSDAGRYFFRMEKGNIKWNYKYDQLSVNVTALTHRPNILIPGTLESGCFQNLTCSVPWACEQGTPPMISWMGTSVSPLHPSTTRSSVLTLIPQPQHHGTSLTCQVTLPGAGVTTNRTIQLNVSYPPQNLTVTVFQGEGTASTALGNSSSLSVLEGQSLRLVCAVDSNPPARLSWTWRSLTLYPSQPSNPLVLELQVHLGDEGEFTCRAQNSLGSQHVSLNLSLQQEYTGKMRPVSGVLLGAVGGAGATALVFLSFCVIFIVVRSCRKKSARPAADVGDIGMKDANTIRGSASQGNLTESWADDNPRHHGLAAHSSGEEREIQYAPLSFHKGEPQDLSGQEATNNEYSEIKIPK
B2: NECTIN2 (protein, UniProt Q92692 32-538, looked up)
Nectin-2: QDVRVQVLPEVRGQLGGTVELPCHLLPPVPGLYISLVTWQRPDAPANHQNVAAFHPKMGPSFPSPKPGSERLSFVSAKQSTGQDTEAELQDATLALHGLTVEDEGNYTCEFATFPKGSVRGMTWLRVIAKPKNQAEAQKVTFSQDPTTVALCISKEGRPPARISWLSSLDWEAKETQVSGTLAGTVTVTSRFTLVPSGRADGVTVTCKVEHESFEEPALIPVTLSVRYPPEVSISGYDDNWYLGRTDATLSCDVRSNPEPTGYDWSTTSGTFPTSAVAQGSQLVIHAVDSLFNTTFVCTVTNAVGMGRAEQVIFVRETPNTAGAGATGGIIGGIIAAIIATAVAATGILICRQQRKEQTLQGAEEDEDLEGPPSYKPPTPKAKLEAQEMPSQLFTLGASEHSPLKTPYFDAGASCTEQEMPRYHELPTLEERSGPLHPGATSLGSPIPVPPGPPAVEDVSLDLEDEEGEEEEEYLDKINPIYDALSYSSPSDSYQGKGFVMSRAMYV
B3: HAOX1 (protein, UniProt Q9UJM8 1-370, looked up)
2-Hydroxyacid oxidase 1: MLPRLICINDYEQHAKSVLPKSIYDYYRSGANDEETLADNIAAFSRWKLYPRMLRNVAETDLSTSVLGQRVSMPICVGATAMQRMAHVDGELATVRACQSLGTGMMLSSWATSSIEEVAEAGPEALRWLQLYIYKDREVTKKLVRQAEKMGYKAIFVTVDTPYLGNRLDDVRNRFKLPPQLRMKNFETSTLSFSPEENFGDDSGLAAYVAKAIDPSISWEDIKWLRRLTSLPIVAKGILRGDDAREAVKHGLNGILVSNHGARQLDGVPATIDVLPEIVEAVEGKVEVFLDGGVRKGTDVLKALALGAKAVFVGRPIVWGLAFQGEKGVQDVLEILKEEFRLAMALSGCQNVKVIDKTLVRKNPLAVSKI
B4: TGM2 (protein, UniProt P21980 2-687, looked up)
Protein-glutamine …: AEELVLERCDLELETNGRDHHTADLCREKLVVRRGQPFWLTLHFEGRNYEASVDSLTFSVVTGPAPSQEAGTKARFPLRDAVEEGDWTATVVDQQDCTLSLQLTTPANAPIGLYRLSLEASTGYQGSSFVLGHFILLFNAWCPADAVYLDSEEERQEYVLTQQGFIYQGSAKFIKNIPWNFGQFEDGILDICLILLDVNPKFLKNAGRDCSRRSSPVYVGRVVSGMVNCNDDQGVLLGRWDNNYGDGVSPMSWIGSVDILRRWKNHGCQRVKYGQCWVFAAVACTVLRCLGIPTRVVTNYNSAHDQNSNLLIEYFRNEFGEIQGDKSEMIWNFHCWVESWMTRPDLQPGYEGWQALDPTPQEKSEGTYCCGPVPVRAIKEGDLSTKYDAPFVFAEVNADVVDWIQQDDGSVHKSINRSLIVGLKISTKSVGRDEREDITHTYKYPEGSSEEREAFTRANHLNKLAEKEETGMAMRIRVGQSMNMGSDFDVFAHITNNTAEEYVCRLLLCARTVSYNGILGPECGTKYLLNLNLEPFSEKSVPLCILYEKYRDCLTESNLIKVRALLVEPVINSYLLAERDLYLENPEIKIRILGEPKQKRKLVAEVSLQNPLPVALEGCTFTVEGAGLTEEQKTVEIPDPVEAGEEVKVRMDLLPLHMGLHKLVVNFESDKLKAVKGFRNVIIGPA
B5: IFN-gamma-R1 (protein, UniProt P15260 18-489, looked up)
Interferon gamma receptor 1: EMGTADLGPSSVPTPTNVTIESYNMNPIVYWEYQIMPQVPVFTVEVKNYGVKNSEWIDACINISHHYCNISDHVGDPSNSLWVRVKARVGQKESAYAKSEEFAVCRDGKIGPPKLDIRKEEKQIMIDIFHPSVFVNGDEQEVDYDPETTCYIRVYNVYVRMNGSEIQYKILTQKEDDCDEIQCQLAIPVSSLNSQYCVSAEGVLHVWGVTTEKSKEVCITIFNSSIKGSLWIPVVAALLLFLVLSLVFICFYIKKINPLKEKSIILPKSLISVVRSATLETKPESKYVSLITSYQPFSLEKEVVCEEPLSPATVPGMHTEDNPGKVEHTEELSSITEVVTTEENIPDVVPGSHLTPIERESSSPLSSNQSEPGSIALNSYHSRNCSESDHSRNGFDTDSSCLESHSSLSDSEFPPNNKGEIKTEGQELITVIKAPTSFGYDKPHVLVDLLVDDSGKESLIGYRPTEDSKEFS
B6: CCL15 (protein, UniProt Q16663 22-113, looked up)
C-C motif chemokine 15: QFTNDAETELMMSKLPLENPVVLNSFHFAADCCTSYISQSIPCSLMKSYFETSSECSKPGVIFLTKKGRQVCAKPSGPGVQDCMKKLKPYSI
B7: PRDX6 (protein, UniProt P30041 2-224, looked up)
Peroxiredoxin-6: PGGLLLGDVAPNFEANTTVGRIRFHDFLGDSWGILFSHPRDFTPVCTTELGRAAKLAPEFAKRNVKLIALSIDSVEDHLAWSKDINAYNCEEPTEKLPFPIIDDRNRELAILLGMLDPAEKDEKGMPVTARVVFVFGPDKKLKLSILYPATTGRNFDEILRVVISLQLTAEKRVATPVDWKDGDSVMVLPTIPEEEAKKLFPKGVFTKELPSGKKYLRYTPQP
B8: PON3 (protein, UniProt Q15166 1-354, looked up)
Serum paraoxonase/lactonase 3: MGKLVALVLLGVGLSLVGEMFLAFRERVNASREVEPVEPENCHLIEELESGSEDIDILPSGLAFISSGLKYPGMPNFAPDEPGKIFLMDLNEQNPRAQALEISGGFDKELFNPHGISIFIDKDNTVYLYVVNHPHMKSTVEIFKFEEQQRSLVYLKTIKHELLKSVNDIVVLGPEQFYATRDHYFTNSLLSFFEMILDLRWTYVLFYSPREVKVVAKGFCSANGITVSADQKYVYVADVAAKNIHIMEKHDNWDLTQLKVIQLGTLVDNLTVDPATGDILAGCHPNPMKLLNYNPEDPPGSEVLRIQNVLSEKPRVSTVYANNGSVLQGTSVASVYHGKILIGTVFHKTLYCEL
B9: TNFRSF6B (protein, UniProt O95407 30-300, looked up)
Tumor necrosis factor …: VAETPTYPWRDAETGERLVCAQCPPGTFVQRPCRRDSPTTCGPCPPRHYTQFWNYLERCRYCNVLCGEREEEARACHATHNRACRCRTGFFAHAGFCLEHASCPPGAGVIAPGTPSQNTQCQPCPPGTFSASSSSSEQCQPHRNCTALGLALNVPGSSSHDTLCTSCTGFPLSTRVPGAEECERAVIDFVAFQDISIKRLQRLLQALEAPEGWGPTPRAGRAALQLKLRRRLTELLGAQDGALLVRLLQALRVARMPGLERSVRERFLPVH

Key:
plasma proteins [1] = test: OLINK proximity extension assay of baseline plasma, CR compared to PD/Death, updated classification, Example 5 (Table 11); type: in vivo, human; conditions: itacitinib 200 or 300 mg QD plus corticosteroids, response at day 28
plasma proteins [2] = test: Proteins of Table 11 stably expressed in complete responders between days 1 and 28, Example 5 (Table 12); type: in vivo, human; conditions: day 1 vs day 28
[3] = system: MCP-3 (CCL7), Reg3A, TNFRSF6B, SCF, CXCL10, IL-8, ST2, CALCA, TNF-R1, IL-6, CCL19, IL-2Ra, and PON3; conditions: targeted OLINK proximity extension assay; for Protein expression, mean, CR (N = 10) / Protein expression, median, CR (N = 10): Complete Responder group; for Protein expression, mean, PD/Death (N = 7) / Protein expression, median, PD/Death (N = 7): Progressive Disease/Death group

Row | Molecule | Fold Change, Down-Regulated in CR Compared to PD/Death (plasma proteins [1]) | Fold Change (D1 vs D28), proteins Down-Regulated in CR Compared to PD/Death (plasma proteins [2]) | further results
1 | B1 | −1.4749 | −1.0923 | 
2 | B2 | −1.5594 | −1.1579 | 
3 | B3 | −7.846 | 1.5747 | 
4 | B4 | −1.5838 | −1.0122 | 
5 | B5 | −1.6515 | −1.0268 | 
6 | B6 | −1.6016 | 1.1003 | 
7 | B7 | −1.4644 | −1.061 | 
8 | B8 |  |  | Fold Change, Up-Regulated in CR Compared to PD/Death (plasma proteins [1]): 4.8594; Fold Change (D1 vs D28), proteins Up-Regulated in CR Compared to PD/Death (plasma proteins [2]): 1.3014; Protein expression, mean, CR (N = 10) [3]: 438566 pg/mL; Protein expression, median, CR (N = 10) [3]: 386584 pg/mL; Protein expression, mean, PD/Death (N = 7) [3]: 148321 pg/mL; Protein expression, median, PD/Death (N = 7) [3]: 93702 pg/mL
9 | B9 | −2.24 |  | Protein expression, mean, CR (N = 10) [3]: 184.7 pg/mL; Protein expression, median, CR (N = 10) [3]: 159 pg/mL; Protein expression, mean, PD/Death (N = 7) [3]: 411.9 pg/mL; Protein expression, median, PD/Death (N = 7) [3]: 413.6 pg/mL
